Experimental data as given in PubChem BioAssay AID1671190 (National Center for Advancing Translational Sciences (NCATS), 2021).
About 6,100 (1.1%) of roughly 580,000 compounds were called active. The inconclusive results got no clear call from the source; some entries with a clear call stand among them for comparison. Calls follow the shape of the dose curve; as a rule, active = well fitted inhibition curve with a large enough effect; inconclusive = small, poorly fitted or top-dose-only effect, or another doubt; inactive = no such curve, though single readings can be large or run the other way. Potencies of inconclusive entries are doubtful fits and often do not repeat.

Protein sequences, listed by entry. Tags and fused reporters are not part of them. Lines headed by an entry give the natural chain unless they say otherwise; changes in a name come on top.
UniProt P18054: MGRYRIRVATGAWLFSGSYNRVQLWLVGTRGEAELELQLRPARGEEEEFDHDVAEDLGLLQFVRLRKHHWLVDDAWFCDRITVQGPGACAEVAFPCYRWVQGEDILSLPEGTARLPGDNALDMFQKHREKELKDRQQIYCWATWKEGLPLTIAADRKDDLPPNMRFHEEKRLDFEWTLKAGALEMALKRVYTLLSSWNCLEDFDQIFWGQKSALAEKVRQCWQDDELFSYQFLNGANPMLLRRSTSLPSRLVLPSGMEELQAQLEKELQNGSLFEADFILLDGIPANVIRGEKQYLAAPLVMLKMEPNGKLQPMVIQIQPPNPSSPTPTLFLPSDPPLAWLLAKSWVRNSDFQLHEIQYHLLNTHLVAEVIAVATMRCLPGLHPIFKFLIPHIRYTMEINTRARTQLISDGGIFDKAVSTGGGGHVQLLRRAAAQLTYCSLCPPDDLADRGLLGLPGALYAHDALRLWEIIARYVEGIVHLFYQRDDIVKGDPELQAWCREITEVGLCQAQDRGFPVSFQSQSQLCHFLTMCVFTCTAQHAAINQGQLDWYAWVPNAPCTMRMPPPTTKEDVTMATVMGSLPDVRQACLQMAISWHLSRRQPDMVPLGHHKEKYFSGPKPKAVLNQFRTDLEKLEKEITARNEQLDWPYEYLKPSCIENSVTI

target: Polyunsaturated fatty acid lipoxygenase ALOX12 (Homo sapiens) (UniProt P18054); assay: Primary qHTS assay for inhibitors of human arachidonate 12S-lipoxygenase (ALOX12): Round 2; settings: purified 12hLO, xylenol orange hydroperoxide absorbance; activity change, negative = inhibition: at 108 µM (top of the series) unless noted
Procedure, shortened: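 Hydroperoxide product was detected by ferrous iron/xylenol orange as the 573 to 405 nm absorbance ratio. Arachidonic acid at 40 uM (final) was turned over for 30 min at room temperature by 150 nM human 12hLO, pH 7.0 Hepes buffer, after 15 min compound preincubation.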
% is scaled to controls: 0 for no effect and ±100 for the full control effect; potency is read from the fitted curve at half-maximal effect.

| SMILES | Potency | activity change, negative = inhibition |
| --- | --- | --- |
| COc1ccc(CNC(=O)CCc2ncc(-c3ccccc3)o2)cc1OC | inactive |  |
| Cn1cnc(S(=O)(=O)N2CCCN(C(=O)c3ccco3)CCNC(=O)CC2c2ccccc2)c1 (configuration not stated) | inactive |  |
| O=C(c1ccco1)N1CCC2(CC1)CCN(c1ccccc1)CC2 | inconclusive: 35.5 µM [inhibitor, single point] |  |
| Cc1ccc(-c2ccc3c(c2)O[C@H](CN(C)C(=O)Nc2ccc(C(F)(F)F)cc2)[C@H](C)CN([C@H](C)CO)S3(=O)=O)cc1 | inactive |  |
| CCNC(=O)c1nc[nH]c1C(=O)NCC | inconclusive: 3.55 µM [inhibitor, full curve, poor fit] |  |
| COc1ccc(S(=O)(=O)N2CCCOC2CNC(=O)C(=O)NCCc2ccco2)cc1 (configuration not stated) | inconclusive: 50.1 µM [inhibitor, partial curve, poor fit] |  |
| COC(=O)c1ccc(CN2C(=O)[C@@H]3C[C@@H](O)CN3C3(CN(Cc4ccc(F)cc4)C3)C2=O)cc1 | inconclusive: 15.8 µM [inhibitor, full curve, poor fit] |  |
| CCOc1ccc(NC2=NCCC(=O)N2Cc2cccs2)cc1 | inactive |  |
| COc1ccc(C(=O)NC(=S)NNC(=O)Cc2cccs2)cc1 | inconclusive: 44.7 µM [inhibitor, partial curve, poor fit] |  |
| CCOC(=O)N1CCN(C2=C(NS(=O)(=O)c3ccc(NC(C)=O)cc3)C(=O)c3ccccc3C2=O)CC1 | inconclusive: 44.7 µM [inhibitor, partial curve, poor fit] |  |
| CCc1ccc(NC(=O)C(C)OC(=O)c2cccc(S(=O)(=O)N3CCc4ccccc4C3)c2)cc1 (configuration not stated) | inactive |  |
| CC(=O)Nc1ccc(C(=O)N/C(=C/c2ccccc2)C(=O)Nc2cccc(C(=O)O)c2)cc1 | inconclusive: 44.7 µM [inhibitor, partial curve, poor fit] |  |
| CCN1C(=O)/C(=C2/C=Cc3ccccc3N2CC)SC1=S | inconclusive: 44.7 µM [inhibitor, partial curve, poor fit] |  |
| CCOC(=O)C(C)Oc1ccc2c(=O)c(Oc3ccc(C(=O)OC)cc3)c(C)oc2c1 (configuration not stated) | inconclusive: 44.7 µM [inhibitor, single point] |  |
| COC(=O)[C@]12C[C@H](CC(=O)NCCC(C)C)C(=O)N(CCC3=CCCCC3)C1=C[C@H](COCc1ccccc1)O[C@@H]2C | inactive |  |
| COc1ccc(-c2noc(CSc3nnc(C)n3-c3ccc(C)cc3)n2)cc1OC | inactive |  |
| CCN(CC)CCCNc1oc(-c2ccc(OC)c(OC)c2)nc1C#N | inconclusive: 50.1 µM [inhibitor, partial curve, poor fit] |  |
| Cc1ccc(C(=O)N2CCc3cc(CNS(=O)(=O)c4cccs4)ccc32)cc1 | inconclusive: 56.2 µM [inhibitor, partial curve, poor fit] |  |
| COc1ccc(NC(=O)O/N=C/c2ccc(Br)cc2)cc1 | inconclusive: 44.7 µM [inhibitor, partial curve, poor fit] |  |
| O=C(Nc1ccc(Br)cc1F)Nc1c(NC2CCCC2)c2ccccc2oc1=O | inconclusive: 89.1 µM [inhibitor, single point] |  |
| O=c1cc(-c2ccccc2)c2ccc(O)c(CN3CCCCC3)c2o1 | inconclusive: 6.31 µM [inhibitor, partial curve, poor fit] |  |
| CS(=O)(=O)c1ccc2nc(NC(=O)COc3ccc(F)cc3)sc2c1 | inconclusive: 79.4 µM [inhibitor, single point] |  |
| COc1cc(/C=C2\C(=O)N(c3ccccc3)N=C2C)ccc1Oc1ccc([N+](=O)[O-])cc1[N+](=O)[O-] | inactive |  |

| SMILES | Potency | activity change, negative = inhibition |
| --- | --- | --- |
| CNC(=O)CSc1nnc(-c2ccco2)n1-c1cccc(C)c1 | inconclusive: 1 µM [inhibitor, full curve, poor fit] |  |
| Cc1cnccc1CN(C)C(=O)c1cc(COc2ccc(-n3cncn3)cc2)on1 | inactive |  |
| CN(Cc1cc(-c2cccs2)n[nH]1)C[C@@H]1CCCN2CCCC[C@H]12 | inactive |  |
| CCCC(C)c1nnc(NC(=O)C2CC(=O)N(c3ccc(OCC)cc3)C2)s1 (configuration not stated) | inconclusive: 79.4 µM [inhibitor, partial curve, poor fit] |  |
| O=C(O)c1ccc(N=C2c3ccccc3-c3ccccc32)cc1 | inconclusive: 89.1 µM [inhibitor, single point] |  |
| CSc1nnc(C)c(/C=C/NOCc2cccc(F)c2)n1 | inconclusive: 39.8 µM [inhibitor, partial curve, poor fit] |  |
| CCOc1ccccc1CN1CCN(S(=O)(=O)CC)CC1 | inconclusive: 0.355 µM [inhibitor, full curve, poor fit] |  |
| O=C(O)c1cccc2c1-c1ccc([N+](=O)[O-])cc1C2=O | inconclusive: 17.8 µM [inhibitor, full curve, poor fit] |  |
| CCOc1ccc(OCC(=O)NCCc2c[nH]c3ccccc23)cc1 | inconclusive: 100 µM [inhibitor, single point] |  |
| Cc1cc(C(F)(F)F)nc2ccccc12 | inactive |  |
| CN(C)C(=O)C1CCC(C)(C(=O)O)C1(C)CI (configuration not stated) | active: 39.8 µM |  |
| CCCN(CCC)CC(O)Cn1cc(/C=C/C(=O)c2ccc(OC)cc2)c2ccccc21 (configuration not stated) | inconclusive: 50.1 µM [inhibitor, partial curve, poor fit] |  |
| Cc1cc(C)c2c(=O)cc(C(=O)Nc3nc4ccc(F)cc4s3)oc2c1 | inconclusive: 100 µM [inhibitor, partial curve, poor fit] |  |
| Cc1nc2ccc(NC(=O)c3ccc(N4C(=O)CCC4=O)cc3)cc2s1 | inactive |  |
| Cc1ccc(C(=O)Oc2ccc(C(O)CNC(C)(C)C)cc2OC(=O)c2ccc(C)cc2)cc1 (configuration not stated) | inconclusive: 18.1 µM [inhibitor, partial curve, poor fit] |  |
| CCC(CC)C(=O)Nc1c(C(=O)N2CCN(c3ccccc3)CC2)oc2ccccc12 | inactive |  |
| CC[C@]12C(=O)N(C)C[C@H]([C@@H]3C(=O)N(C)C(=O)[C@@H]31)N2C(=O)c1ccccc1 | inactive |  |
| Nn1c(-c2cccc(Br)c2)n[nH]c1=S | inconclusive: 3.16 µM [inhibitor, full curve, poor fit] |  |
| Cc1ccc(C)c(NC(=S)NNC(=O)c2csc(C(C)C)c2)c1 | inconclusive: 39.8 µM [inhibitor, partial curve, poor fit] |  |
| Cc1ccc(-c2nnc(N3CCCCC3)c3ccccc23)cc1 | inconclusive: 50.1 µM [inhibitor, partial curve, poor fit] |  |
| COc1ccc(CCNC(=O)CSc2ccc3ccccc3c2)cc1OC | inconclusive: 100 µM [inhibitor, partial curve, poor fit] |  |
| CCC(C)(C)n1nnnc1C(c1cc2ccc(OC)cc2[nH]c1=O)N1CCc2ccccc2C1 (configuration not stated) | inconclusive: 35.5 µM [inhibitor, partial curve, poor fit] |  |
| CC1Cc2ccccc2N1Cc1ccc([N+](=O)[O-])cc1 (configuration not stated) | inconclusive: 0.447 µM [inhibitor, full curve, poor fit] |  |

Looked up above.
Under Potency, COc1ccc(C(=O)NC(=S)NNC(=O)Cc2cccs2)cc1 has inconclusive: 44.7 µM [inhibitor, partial curve, poor fit]
Under Potency, COC(=O)c1ccc(CN2C(=O)[C@@H]3C[C@@H](O)CN3C3(CN(Cc4ccc(F)cc4)C3)C2=O)cc1 has inconclusive: 15.8 µM [inhibitor, full curve, poor fit]
Under Potency, Cc1cnccc1CN(C)C(=O)c1cc(COc2ccc(-n3cncn3)cc2)on1 has inactive
Under Potency, CCCC(C)c1nnc(NC(=O)C2CC(=O)N(c3ccc(OCC)cc3)C2)s1 (configuration not stated) has inconclusive: 79.4 µM [inhibitor, partial curve, poor fit]
Under Potency, CS(=O)(=O)c1ccc2nc(NC(=O)COc3ccc(F)cc3)sc2c1 has inconclusive: 79.4 µM [inhibitor, single point]

(cont.)

| SMILES | Potency | activity change, negative = inhibition |
| --- | --- | --- |
| COc1ccc(C2C(C(C)=O)=C(C)N=c3s/c(=C\c4cc(C)n(C)c4C)c(=O)n32)c(OC)c1 (configuration not stated) | inconclusive: 50.1 µM [inhibitor, partial curve] |  |
| CCc1ccccc1NC(=O)Cn1c(-c2ccc(F)cc2)nc(C)cc1=O | inactive |  |
| O=C(Nc1ccc(F)cc1)c1ccc(Cn2nc(N3CCN(c4ccccc4)CC3)ccc2=O)o1 | inconclusive: 56.2 µM [inhibitor, partial curve, poor fit] |  |
| Clc1ccc(Cl)c(-c2nn3c(CN4CCOCC4)nnc3s2)c1 | inconclusive: 44.7 µM [inhibitor, partial curve, poor fit] |  |
| Cc1noc(C)c1CSCC(=O)Nc1cc(S(C)(=O)=O)ccc1Cl | inactive |  |
| C=CCn1c(=O)[nH]c2cc(C(=O)N3CCN(c4ccc(C(C)=O)cc4)CC3)ccc2c1=O | inactive |  |
| Cc1ccc(O)c(-c2cc(-c3ccccc3[N+](=O)[O-])[nH]n2)c1 | inconclusive: 25.1 µM [inhibitor, partial curve] |  |
| CCc1ccc2cc3c(cc2n1)C(=O)c1ccccc1-3 | active: 7.94 µM |  |
| Cc1nc(-n2nc(C)c(Cl)c2C)sc1C(=O)N1CCCC1 | inactive |  |
| Cc1cc(O)c(/C=N/Nc2ccccc2)c(=O)o1 | inconclusive: 7.94 µM [inhibitor, full curve, poor fit] |  |
| Cn1c(CN2CC[C@H](c3nc4ccccc4[nH]3)C2)nc2ccccc21 | inactive |  |
| Cc1nc2nc[nH]n2c(=O)c1NS(C)(=O)=O |  | inconclusive: -47.1% [inhibitor] |
| Cc1ccc2c(c1)N(C(=O)CCC(=O)N1CCN(c3ccccn3)CC1)CC(C)O2 (configuration not stated) | inactive |  |
| Cc1[nH][nH]c(=O)c1C(c1ccc(OCc2ccccc2)cc1)c1c(C)[nH][nH]c1=O | inactive |  |
| C=CCNc1nc(C(=O)OCc2cccc(F)c2F)cs1 | inconclusive: 2.51 µM [inhibitor, full curve, poor fit] |  |
| COc1ccc(-c2cc(C(=O)N3CC(C)CC(C)C3)c3ccccc3n2)cc1 (configuration not stated) | inconclusive: 100 µM [inhibitor, single point] |  |
| COc1ccc(OC)c(CC(=O)N2CCc3cc(OC)c(OC)cc3C2)c1 | inactive |  |
| O=C1c2ccccc2C(=O)N1CCCc1cn(C[C@H]2CC[C@H](Cn3cc(CCCN4C(=O)c5ccccc5C4=O)nn3)O2)nn1 | inactive |  |
| COc1ccc(OC)c(/C=N/OCc2c(Cl)cccc2Cl)c1 | inactive |  |
| O=C(NC(=S)N1CCCCC1)c1csc([N+](=O)[O-])c1 | inactive |  |
| FC(F)(F)c1cccc(CSc2nnc(-c3cccnc3)n2-c2ccc(Br)cc2)c1 | inactive |  |
